Data as given in PubChem BioAssay AID1259308 (NCATS, 2017).
Aim: 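Knock-downs that increase output of a recombinant reporter protein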 (primary screen). System: human HEK293 embryonic kidney cells stably expressing firefly luciferase (HEK-CMV-Luc2-Hygro). Knock-down reagent: single siRNA against human genes, 0.8 pmol siRNA per well. Timing: 72 h. Read-out: 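Luciferase light (ONE-Glo) measured on one replicate plate set and viability (CellTiter-Glo) on the other, scaled to a negative control siRNA, with robust z-scores and luciferase per cell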. Reading the numbers: total luciferase, z-score and total luciferase, % of control: higher = more reporter protein produced. Hit rule: 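Active when the median/MAD z-score for overall luciferase is greater than 3; a gene was taken forward for validation with new siRNAs if at least two of its three siRNAs passed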. Meaning of the calls: active = raised luciferase; inactive = no rise.
Shown is one part, drawn at random, of about 59,000 deposited reagents. About 1,510 of all reagents (2.6%) were called active. 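Calls use total luciferase alone and ignore viability, so some active siRNAs may act by altering cell number.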 Reagents against one gene are numbered here. Not all columns of the deposit are shown.

How did the screen score SHFL #1?
total luciferase, z-score: 0.00117; total luciferase, % of control: 81.9; activity call: inactive

For SHFL #2, what does the deposit list?
total luciferase, z-score: 0.265; total luciferase, % of control: 87.2; activity call: inactive

How did the screen score SHFL #3?
total luciferase, z-score: 6.02; total luciferase, % of control: 202; activity call: active

For GET1P1 #1, what does the deposit list?
total luciferase, z-score: -3.04; total luciferase, % of control: 21.4; activity call: inactive

How did the screen score GET1P1 #2?
total luciferase, z-score: 0.251; total luciferase, % of control: 86.9; activity call: inactive

With GET1P1 #3, what does the deposit list?
total luciferase, z-score: 0.337; total luciferase, % of control: 88.6; activity call: inactive

Which result is listed for DMAC2 #1?
total luciferase, z-score: 0.331; total luciferase, % of control: 88.5; activity call: inactive

With DMAC2 #2, what was measured?
total luciferase, z-score: -0.469; total luciferase, % of control: 72.5; activity call: inactive

What did the screen give for DMAC2 #3?
total luciferase, z-score: -0.164; total luciferase, % of control: 78.6; activity call: inactive

What did the screen give for SLITRK6 #1?
total luciferase, z-score: -1.68; total luciferase, % of control: 48.4; activity call: inactive

Which result is listed for SLITRK6 #2?
total luciferase, z-score: -0.752; total luciferase, % of control: 66.9; activity call: inactive

Which result is listed for SLITRK6 #3?
total luciferase, z-score: -0.428; total luciferase, % of control: 73.4; activity call: inactive

What is on record for DNAAF3 #1?
total luciferase, z-score: 0.101; total luciferase, % of control: 83.9; activity call: inactive

Which result is listed for DNAAF3 #2?
total luciferase, z-score: 1.67; total luciferase, % of control: 115; activity call: inactive

For DNAAF3 #3, what was measured?
total luciferase, z-score: -0.0998; total luciferase, % of control: 79.9; activity call: inactive

With LYG1 #1, what does the deposit list?
total luciferase, z-score: -2.62; total luciferase, % of control: 29.8; activity call: inactive

What did the screen give for LYG1 #2?
total luciferase, z-score: 2.95; total luciferase, % of control: 141; activity call: inactive

What is on record for LYG1 #3?
total luciferase, z-score: 1.24; total luciferase, % of control: 107; activity call: inactive

With ATL2 #1, what was measured?
total luciferase, z-score: 0.585; total luciferase, % of control: 93.5; activity call: inactive

Which result is listed for ATL2 #2?
total luciferase, z-score: -0.361; total luciferase, % of control: 74.7; activity call: inactive

What is on record for ATL2 #3?
total luciferase, z-score: -0.269; total luciferase, % of control: 76.5; activity call: inactive

What is on record for PUM3 #1?
total luciferase, z-score: -0.479; total luciferase, % of control: 72.4; activity call: inactive

For PUM3 #2, what was measured?
total luciferase, z-score: 0.854; total luciferase, % of control: 98.9; activity call: inactive

With PUM3 #3, what was measured?
total luciferase, z-score: 1.56; total luciferase, % of control: 113; activity call: inactive

For FUCA1 #1, how do the results read?
total luciferase, z-score: -1.63; total luciferase, % of control: 49.4; activity call: inactive

How did the screen score FUCA1 #2?
total luciferase, z-score: -0.831; total luciferase, % of control: 65.4; activity call: inactive

For FUCA1 #3, how do the results read?
total luciferase, z-score: -1.68; total luciferase, % of control: 48.5; activity call: inactive

For DACT1 #1, what does the deposit list?
total luciferase, z-score: 0.041; total luciferase, % of control: 82.7; activity call: inactive

With DACT1 #2, how do the results read?
total luciferase, z-score: 0.889; total luciferase, % of control: 99.6; activity call: inactive

How did the screen score DACT1 #3?
total luciferase, z-score: 0.396; total luciferase, % of control: 89.8; activity call: inactive

What did the screen give for SLC26A1 #1?
total luciferase, z-score: -0.31; total luciferase, % of control: 75.7; activity call: inactive

How did the screen score SLC26A1 #2?
total luciferase, z-score: 0.124; total luciferase, % of control: 84.4; activity call: inactive

What is on record for SLC26A1 #3?
total luciferase, z-score: 0.0985; total luciferase, % of control: 83.8; activity call: inactive

What is on record for ELF1 #1?
total luciferase, z-score: 0.852; total luciferase, % of control: 98.8; activity call: inactive

What is on record for ELF1 #2?
total luciferase, z-score: 0.793; total luciferase, % of control: 97.7; activity call: inactive

For ELF1 #3, what does the deposit list?
total luciferase, z-score: -1.3; total luciferase, % of control: 56.1; activity call: inactive

What did the screen give for EXOSC8 #1?
total luciferase, z-score: 1.41; total luciferase, % of control: 110; activity call: inactive

For EXOSC8 #2, what was measured?
total luciferase, z-score: 0.633; total luciferase, % of control: 94.5; activity call: inactive

For EXOSC8 #3, what was measured?
total luciferase, z-score: 0.00394; total luciferase, % of control: 82; activity call: inactive

With SREK1 #1, what was measured?
total luciferase, z-score: -0.697; total luciferase, % of control: 68; activity call: inactive

What did the screen give for SREK1 #2?
total luciferase, z-score: -0.284; total luciferase, % of control: 76.2; activity call: inactive

With SREK1 #3, what was measured?
total luciferase, z-score: -0.0771; total luciferase, % of control: 80.4; activity call: inactive

In a second layout: results already given.
| gene | reagent no. | total luciferase, z-score | total luciferase, % of control | activity call |
| --- | --- | --- | --- | --- |
| DMAC2 | 3 | -0.164 | 78.6 | inactive |
| SLITRK6 | 1 | -1.68 | 48.4 | inactive |
| SLITRK6 | 2 | -0.752 | 66.9 | inactive |
